We go through 22 compounds from PubChem BioAssay AID248 (DTP/NCI, 2004).

The list is a part of this screen's results and no random one: it is rich in T/C values a quarter to a half above the control, in often repeated tests (any T/C) and in doses without a T/C. Further doses and runs are listed elsewhere. T/C is the treated group as % of the vehicle group. Some doses have a count of surviving animals in place of a T/C: the source holds a T/C of zero for them, seemingly a mark for toxic or unscored doses. Some survivor counts are full or nearly so, which does not show that the dose was tolerated: survival well below the control is almost never listed, so the zero probably covers shortened survival too. Counts of survivors are from the toxicity check (mostly the fifth day) where no day follows; animals may have died later. Schedule codes are those of the source, taken here to give the interval after Q, in days (D) or hours (H), and the number of doses after X. Some entries hold several experiments; the results are listed from low to high. Some schedule codes hold Z or #, which are not explained here. For survival time, the PubChem record calls one and a half times the control and up active, and a quarter to a half above the control has no call in these data; cut-offs in other NCI protocols can differ. Some T/C values carry the count of animals alive at the toxicity check (mostly the fifth day); without a count, all were alive then.

The test system of the assay is L1210 leukemia ip in BDF1 mice, survival T/C. Put plainly: NCI In Vivo Anticancer Drug Screen. Data for tumor model L1210 Leukemia (intraperitoneal) in B6D2F1 (BDF1) mice. Conditions: T/C endpoint: mean survival time, higher T/C = longer survival.
Where [1] appears, read: dose: 200.0 mg/kg/injection, schedule: Q01DX009 (ip), vehicle: saline.
The mark [2] stands for this setting: dose: 400.0 mg/kg/injection, schedule: Q01DX009 (ip), vehicle: saline.
[3] abbreviates: dose: 200.0 mg/kg/injection, schedule: Q01DX001 (ip), vehicle: saline.
The mark [4] stands for this setting: dose: 400.0 mg/kg/injection, schedule: Q01DX001 (ip), vehicle: saline.
Setting [5] is: dose: 100.0 mg/kg/injection, schedule: Q04DX003 (ip), vehicle: saline with Tween-80.
The mark [6] stands for this setting: dose: 200.0 mg/kg/injection, schedule: Q04DX003 (ip), vehicle: saline with Tween-80.
Where [7] appears, read: dose: 400.0 mg/kg/injection, schedule: Q04DX003 (ip), vehicle: saline with Tween-80.
Where [8] appears, read: dose: 400.0 mg/kg/injection, schedule: Q01DX001 (ip), vehicle: carboxymethylcellulose (CMC).
The mark [9] stands for this setting: dose: 100.0 mg/kg/injection, schedule: Q04DX003 (ip), vehicle: Klucel (hydroxypropylcellulose) (HPC).
Where [10] appears, read: dose: 400.0 mg/kg/injection, schedule: Q01DX009 (ip), vehicle: Klucel (hydroxypropylcellulose) (HPC).
[11] abbreviates: dose: 100.0 mg/kg/injection, schedule: Q01DX009 (ip), vehicle: saline.
[12] abbreviates: dose: 100.0 mg/kg/injection, schedule: Q04DX003 (ip), vehicle: saline.
[13] abbreviates: dose: 200.0 mg/kg/injection, schedule: Q04DX003 (ip), vehicle: saline.
Setting [14] is: dose: 400.0 mg/kg/injection, schedule: Q04DX003 (ip), vehicle: saline.

For `Cc1cc(C)c(F)[c]([Hg][Br])c1N`, the survivor count is, setting by setting: (dose: 25.0 mg/kg/injection, schedule: Q01DX009 (ip), vehicle: Klucel (hydroxypropylcellulose) (HPC)) 0 of 3; (dose: 50.0 mg/kg/injection, schedule: Q01DX009 (ip), vehicle: Klucel (hydroxypropylcellulose) (HPC)) 0 of 3; (dose: 75.0 mg/kg/injection, schedule: Q01DX001 (ip), vehicle: Klucel (hydroxypropylcellulose) (HPC)) 0 of 6; (dose: 150.0 mg/kg/injection, schedule: Q01DX001 (ip), vehicle: Klucel (hydroxypropylcellulose) (HPC)) 0 of 6; (dose: 200.0 mg/kg/injection, schedule: Q01DX009 (ip), vehicle: Klucel (hydroxypropylcellulose) (HPC)) 0 of 3.

As to `CCC(C)C(CCN1CCCC1)(CNC(=O)CN(CC)CC)c1cccc2ccccc12` (stereo unspecified), the survivor count under setting [1] is 0 of 6 and the survivor count under setting [2] is 0 of 6.

Regarding `O=C(Nc1ccc(C2=NCCCCN2)cc1)c1ccc(C(=O)Nc2ccc(C3=NCCCCN3)cc2)c(Cl)c1`, the survivor count (dose: 1.0 mg/kg/injection, schedule: Q01DX015 (ip), vehicle: water) was 3 of 6; the survivor count (dose: 2.0 mg/kg/injection, schedule: Q01DX015 (ip), vehicle: water) is 1 of 6; the survivor count (dose: 4.0 mg/kg/injection, schedule: Q01DX015 (ip), vehicle: water) is listed as 1 of 6; the survivor count (dose: 8.0 mg/kg/injection, schedule: Q01DX Z (ip), vehicle: water) is listed as 0 of 6; the survivor count (dose: 16.0 mg/kg/injection, schedule: Q01DX Z (ip), vehicle: water) is 0 of 6; the survivor count (dose: 32.0 mg/kg/injection, schedule: Q01DX Z (ip), vehicle: water) is given as 0 of 6.

In the case of `O=C1C=C(O)c2[nH]c(=O)ccc2C1=O`, the survivor count is 1 of 4 (dose: 80.0 mg/kg/injection, schedule: Q01DX001 (ip), vehicle: saline); 0 of 4 (dose: 100.0 mg/kg/injection, schedule: Q01DX001 (ip), vehicle: saline); 0 of 4 under setting [3]; 0 of 4 under setting [4].

With `N#CC1=C(C#N)C(=O)NC1=O`, the survivor count is recorded as 6 of 6 under setting [5], 0 of 6 under setting [6] and 0 of 6 under setting [7].

Turning to `CS(=O)(=O)OCCC#N`, the survivor count is, setting by setting: under setting [1], 3 of 6; (dose: 400.0 mg/kg/injection, schedule: Q04DX003 (ip), vehicle: alcohol) 0 of 6.

`C1=C2CCCCC2OC1` (stereo unspecified): the survivor count (dose: 300.0 mg/kg/injection, schedule: Q01DX001 (ip), vehicle: carboxymethylcellulose (CMC)) is reported as 0 of 6.

For the compound `O=C(O)COc1ccc(Cl)cc1Cl`, the survivor count under setting [2] is 3 of 6.

For `COc1cc(N(CCO)CCO)ccc1NC(=O)c1ccccc1`, the survivor count (dose: 50.0 mg/kg/injection, schedule: Q01DX001 (ip), vehicle: carboxymethylcellulose (CMC)) is 2 of 4; the survivor count (dose: 100.0 mg/kg/injection, schedule: Q01DX001 (ip), vehicle: carboxymethylcellulose (CMC)) was 0 of 6; the survivor count (dose: 200.0 mg/kg/injection, schedule: Q01DX001 (ip), vehicle: carboxymethylcellulose (CMC)) is 0 of 6; the survivor count under setting [8] is 0 of 6.

With `Cc1nc2c(nc1C)C(=O)C1C3c4ccccc4C(c4ccccc43)C1C2=O` (stereo unspecified), the survivor count under setting [9] is listed as 6 of 6.

For `CCCC(C)OP(=O)(OC(C)CC)OC(C)CC` (stereo unspecified), under setting [10], the survivor count is recorded as 0 of 6.

Turning to `COc1ccc(NC(=S)NNC(=S)NNc2ccccc2)cc1`, the survivor count under setting [10] is recorded as 5 of 6.

For the compound `C#CC[N+](CC)(CC)CC`, the survivor count was 5 of 6 and 3 of 3 under setting [11]; 1 of 6 under setting [3]; 0 of 6 and 1 of 3 (dose: 200.0 mg/kg/injection, schedule: Q04DX002 (ip), vehicle: saline); 1 of 6 under setting [4]; 0 of 3 and 0 of 6 (dose: 400.0 mg/kg/injection, schedule: Q04DX002 (ip), vehicle: saline). For the same compound, the T/C (dose: 100.0 mg/kg/injection, schedule: Q04DX002 (ip), vehicle: saline) is on record as 95, 97, 103, 107 % of control.

Regarding `C1CN(SSN2CCOCC2)CCO1`, the survivor count was 1 of 3 under setting [9] and 0 of 3 (dose: 400.0 mg/kg/injection, schedule: Q04DX003 (ip), vehicle: Klucel (hydroxypropylcellulose) (HPC)).

Consider `O=C(O)c1ccc(OCCCOc2ccccc2)c(Cl)c1`, for which the survivor count under setting [7] was 0 of 6.

For the compound `CCCCCCCOC(CN)C(Cl)(Cl)Cl` (stereo unspecified), the survivor count is, setting by setting: (dose: 50.0 mg/kg/injection, schedule: Q01DX009 (ip), vehicle: saline with Tween-80) 0 of 3 and 0 of 6; (dose: 100.0 mg/kg/injection, schedule: Q04DX002 (ip), vehicle: saline with Tween-80) 1 of 3, 3 of 6, 4 of 6; under setting [5], 1 of 6; (dose: 200.0 mg/kg/injection, schedule: Q04DX002 (ip), vehicle: saline with Tween-80) 0 of 3 and 0 of 6; under setting [6], 0 of 6; (dose: 400.0 mg/kg/injection, schedule: Q04DX002 (ip), vehicle: saline with Tween-80) 0 of 3 and 0 of 6. In addition, under setting [7], the survivor count is 1 of 6.

Regarding `N#CCCCCCl`, the survivor count (dose: 50.0 mg/kg/injection, schedule: Q04DX003 (ip), vehicle: saline) is 3 of 6; the survivor count under setting [12] was 4 of 6; the survivor count under setting [13] is on record as 0 of 6; the survivor count under setting [14] was 0 of 6.

As to `O=C(O)c1ccc(N=Cc2ccc(N(CCCl)CCCl)cc2)cc1O`, the survivor count under setting [8] is 2 of 4.

Consider `Cc1nc(-c2ccc(N=Cc3ccc(N(CCOS(C)(=O)=O)CCOS(C)(=O)=O)cc3C)cc2)c(C)s1`, for which the T/C runs as follows: (dose: 20.0 mg/kg/injection, schedule: Q01DX009 (ip), vehicle: Klucel (hydroxypropylcellulose) (HPC)) 135 % of control [5 of 6 alive]; (dose: 40.0 mg/kg/injection, schedule: Q01DX001 (ip), vehicle: Klucel (hydroxypropylcellulose) (HPC)) 131 % of control. The survivor count by setting is: (dose: 80.0 mg/kg/injection, schedule: Q01DX001 (ip), vehicle: Klucel (hydroxypropylcellulose) (HPC)) 6 of 6; (dose: 100.0 mg/kg/injection, schedule: Q01DX001 (ip), vehicle: Klucel (hydroxypropylcellulose) (HPC)) 1 of 6; (dose: 200.0 mg/kg/injection, schedule: Q01DX001 (ip), vehicle: Klucel (hydroxypropylcellulose) (HPC)) 0 of 6; (dose: 400.0 mg/kg/injection, schedule: Q01DX001 (ip), vehicle: Klucel (hydroxypropylcellulose) (HPC)) 0 of 6.

In the case of `NC(=O)c1ncn(C2OC(CO)C(O)C2O)c1C(N)=O` (stereo unspecified), under setting [8], the survivor count is given as 2 of 4.

Regarding `CN(C)N=Nc1ccccc1[N+](=O)[O-]`, the T/C (dose: 25.0 mg/kg/injection, schedule: Q01DX009 (ip), vehicle: saline) was 130 % of control; the T/C (dose: 50.0 mg/kg/injection, schedule: Q01DX009 (ip), vehicle: saline) was 136 % of control; the T/C (dose: 79.0 mg/kg/injection, schedule: Q01DX009 (ip), vehicle: saline with Tween-80) was 135 % of control; the T/C (dose: 119.0 mg/kg/injection, schedule: Q01DX009 (ip), vehicle: saline with Tween-80) was 147 % of control [5 of 6 alive]; the T/C under setting [3] was 134 % of control; the T/C under setting [4] is 128 % of control. Besides, the survivor count by setting is: under setting [11], 6 of 6; under setting [1], 1 of 6.

With `CC(C)N1CN(C(C)C)CN(C(C)C)C1`, the survivor count is 3 of 6 under setting [11], 6 of 6 under setting [12], 0 of 6 under setting [13] and 0 of 6 under setting [14].
